In the supplement of paper PMC8612539:
Converted amounts (≈) assume the structure as drawn. Further values from the same series stand in other lists.

System: Escherichia coli
Assay: minimum inhibitory concentration (MIC)
Description: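 Broth microdilution MIC (Sensititre BOPO7F bovine plate, CLSI methods) of 19 antimicrobials against field isolates of P. multocida, M. haemolytica, H. somni (deep nasopharyngeal swabs) and E. coli, Enterococcus spp. (rectal swabs) from weaned dairy heifers. Incubation 16-24 h at 35 C. MIC is the lowest concentration preventing visible growth. Values with <= or > lie at the tested range limits. Trimethoprim-sulfamethoxazole is given as the trimethoprim component of a 1:19 mixture.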

CS(=O)(=O)c1ccc([C@@H](O)[C@@H](CF)NC(=O)C(Cl)Cl)cc1 [Florfenicol]
Settings | minimum inhibitory concentration [µg/mL]
isolate (source animal id): 1 | 4 (≈ 11.2 µM)
isolate (source animal id): 2 | > 8
isolate (source animal id): 3 | 4 (≈ 11.2 µM)
isolate (source animal id): 4 | > 8
isolate (source animal id): 5 | > 8
isolate (source animal id): 6 | > 8
isolate (source animal id): 7 | > 8
isolate (source animal id): 17 | > 8
isolate (source animal id): 18 | > 8
isolate (source animal id): 19 | 2 (≈ 5.58 µM)
isolate (source animal id): 20 | > 8
isolate (source animal id): 21 | > 8
isolate (source animal id): 22 | 4 (≈ 11.2 µM)
isolate (source animal id): 23 | 4 (≈ 11.2 µM)
isolate (source animal id): 24 | > 8
isolate (source animal id): 25 | > 8
isolate (source animal id): 26 | 4 (≈ 11.2 µM)
isolate (source animal id): 27 | > 8
isolate (source animal id): 28 | 4 (≈ 11.2 µM)
isolate (source animal id): 29 | > 8
isolate (source animal id): 30 | > 8
isolate (source animal id): 31 | > 8
isolate (source animal id): 32 | > 8
isolate (source animal id): 33 | > 8
isolate (source animal id): 34 | > 8
isolate (source animal id): 35 | > 8
isolate (source animal id): 36 | > 8
isolate (source animal id): 37 | > 8
isolate (source animal id): 38 | 4 (≈ 11.2 µM)
isolate (source animal id): 39 | > 8
isolate (source animal id): 40 | > 8
isolate (source animal id): 41 | > 8
isolate (source animal id): 42 | > 8
isolate (source animal id): 43 | > 8
isolate (source animal id): 44 | 4 (≈ 11.2 µM)
isolate (source animal id): 45 | > 8
isolate (source animal id): 46 | > 8
isolate (source animal id): 47 | > 8
isolate (source animal id): 48 | > 8
isolate (source animal id): 49 | > 8
isolate (source animal id): 50 | > 8
isolate (source animal id): 51 | > 8
isolate (source animal id): 52 | 2 (≈ 5.58 µM)
isolate (source animal id): 53 | > 8
isolate (source animal id): 54 | 4 (≈ 11.2 µM)
isolate (source animal id): 55 | > 8
isolate (source animal id): 56 | 4 (≈ 11.2 µM)
isolate (source animal id): 57 | > 8
isolate (source animal id): 58 | > 8
isolate (source animal id): 59 | > 8
isolate (source animal id): 60 | > 8
isolate (source animal id): 61 | > 8
isolate (source animal id): 62 | > 8
isolate (source animal id): 63 | > 8
isolate (source animal id): 64 | > 8
isolate (source animal id): 65 | > 8
isolate (source animal id): 66 | > 8
isolate (source animal id): 67 | > 8
isolate (source animal id): 68 | 4 (≈ 11.2 µM)
isolate (source animal id): 69 | > 8
isolate (source animal id): 70 | > 8
isolate (source animal id): 71 | > 8
isolate (source animal id): 72 | > 8
isolate (source animal id): 73 | 4 (≈ 11.2 µM)
isolate (source animal id): 74 | > 8
isolate (source animal id): 75 | > 8
isolate (source animal id): 76 | > 8
isolate (source animal id): 77 | > 8
isolate (source animal id): 78 | > 8
isolate (source animal id): 79 | > 8
isolate (source animal id): 80 | 2 (≈ 5.58 µM)
isolate (source animal id): 81 | > 8
isolate (source animal id): 82 | > 8
isolate (source animal id): 83 | > 8
isolate (source animal id): 84 | > 8
isolate (source animal id): 85 | 4 (≈ 11.2 µM)
isolate (source animal id): 86 | > 8
isolate (source animal id): 87 | > 8
isolate (source animal id): 88 | > 8
isolate (source animal id): 89 | > 8
isolate (source animal id): 90 | > 8
isolate (source animal id): 91 | > 8
isolate (source animal id): 92 | > 8
isolate (source animal id): 93 | > 8
isolate (source animal id): 94 | > 8
isolate (source animal id): 95 | > 8
isolate (source animal id): 96 | > 8
isolate (source animal id): 97 | > 8
isolate (source animal id): 189 | > 8
isolate (source animal id): 190 | > 8
isolate (source animal id): 191 | 4 (≈ 11.2 µM)
isolate (source animal id): 192 | > 8
isolate (source animal id): 193 | > 8
isolate (source animal id): 194 | 4 (≈ 11.2 µM)
isolate (source animal id): 195 | 4 (≈ 11.2 µM)
isolate (source animal id): 196 | > 8
isolate (source animal id): 197 | > 8
isolate (source animal id): 198 | > 8
isolate (source animal id): 199 | > 8
isolate (source animal id): 200 | > 8
isolate (source animal id): 201 | 4 (≈ 11.2 µM)
isolate (source animal id): 202 | 4 (≈ 11.2 µM)
isolate (source animal id): 203 | > 8
isolate (source animal id): 204 | 4 (≈ 11.2 µM)
isolate (source animal id): 205 | > 8
isolate (source animal id): 206 | 4 (≈ 11.2 µM)
isolate (source animal id): 207 | > 8
isolate (source animal id): 208 | 4 (≈ 11.2 µM)
isolate (source animal id): 209 | 4 (≈ 11.2 µM)
isolate (source animal id): 210 | 4 (≈ 11.2 µM)
isolate (source animal id): 211 | > 8
isolate (source animal id): 212 | > 8
isolate (source animal id): 213 | > 8
isolate (source animal id): 214 | 4 (≈ 11.2 µM)
isolate (source animal id): 215 | 4 (≈ 11.2 µM)
isolate (source animal id): 216 | > 8
isolate (source animal id): 217 | 4 (≈ 11.2 µM)
isolate (source animal id): 218 | 4 (≈ 11.2 µM)
isolate (source animal id): 219 | > 8
isolate (source animal id): 220 | > 8
isolate (source animal id): 221 | 4 (≈ 11.2 µM)
isolate (source animal id): 222 | 2 (≈ 5.58 µM)
isolate (source animal id): 223 | > 8
isolate (source animal id): 224 | > 8
isolate (source animal id): 225 | > 8
isolate (source animal id): 226 | > 8
isolate (source animal id): 227 | > 8
isolate (source animal id): 228 | > 8
isolate (source animal id): 229 | > 8
isolate (source animal id): 230 | > 8
isolate (source animal id): 231 | > 8
isolate (source animal id): 232 | > 8
isolate (source animal id): 233 | > 8
isolate (source animal id): 234 | > 8
isolate (source animal id): 235 | > 8
isolate (source animal id): 236 | > 8
isolate (source animal id): 237 | > 8
isolate (source animal id): 238 | > 8
isolate (source animal id): 239 | 4 (≈ 11.2 µM)
isolate (source animal id): 240 | > 8
isolate (source animal id): 241 | > 8
isolate (source animal id): 242 | 4 (≈ 11.2 µM)
isolate (source animal id): 243 | 4 (≈ 11.2 µM)
isolate (source animal id): 244 | 8 (≈ 22.3 µM)
isolate (source animal id): 245 | > 8
isolate (source animal id): 246 | > 8
isolate (source animal id): 247 | > 8
isolate (source animal id): 248 | > 8
isolate (source animal id): 249 | 8 (≈ 22.3 µM)
isolate (source animal id): 250 | 4 (≈ 11.2 µM)
isolate (source animal id): 251 | > 8
isolate (source animal id): 252 | > 8
isolate (source animal id): 253 | > 8
isolate (source animal id): 254 | > 8
isolate (source animal id): 255 | > 8
isolate (source animal id): 256 | > 8
isolate (source animal id): 257 | > 8
isolate (source animal id): 258 | 8 (≈ 22.3 µM)
isolate (source animal id): 259 | > 8
isolate (source animal id): 260 | > 8
isolate (source animal id): 261 | > 8
isolate (source animal id): 262 | > 8
isolate (source animal id): 263 | > 8
isolate (source animal id): 264 | 4 (≈ 11.2 µM)
isolate (source animal id): 265 | > 8
isolate (source animal id): 266 | 2 (≈ 5.58 µM)
isolate (source animal id): 267 | > 8
isolate (source animal id): 268 | > 8
isolate (source animal id): 269 | > 8
isolate (source animal id): 270 | > 8
isolate (source animal id): 271 | > 8
isolate (source animal id): 272 | 4 (≈ 11.2 µM)
isolate (source animal id): 273 | 4 (≈ 11.2 µM)
isolate (source animal id): 274 | > 8
isolate (source animal id): 275 | > 8
isolate (source animal id): 276 | > 8
isolate (source animal id): 277 | > 8
isolate (source animal id): 278 | 4 (≈ 11.2 µM)
isolate (source animal id): 279 | > 8
isolate (source animal id): 280 | > 8
isolate (source animal id): 281 | > 8
isolate (source animal id): 282 | 4 (≈ 11.2 µM)
isolate (source animal id): 283 | 8 (≈ 22.3 µM)
isolate (source animal id): 284 | > 8
isolate (source animal id): 285 | 2 (≈ 5.58 µM)
isolate (source animal id): 286 | 8 (≈ 22.3 µM)
isolate (source animal id): 287 | > 8
isolate (source animal id): 288 | 4 (≈ 11.2 µM)
isolate (source animal id): 289 | 2 (≈ 5.58 µM)
isolate (source animal id): 290 | > 8
isolate (source animal id): 291 | > 8
isolate (source animal id): 292 | > 8
isolate (source animal id): 293 | > 8
isolate (source animal id): 294 | > 8
isolate (source animal id): 295 | > 8
isolate (source animal id): 296 | > 8
isolate (source animal id): 297 | 8 (≈ 22.3 µM)
isolate (source animal id): 298 | > 8
isolate (source animal id): 299 | > 8
isolate (source animal id): 300 | > 8
isolate (source animal id): 301 | > 8
isolate (source animal id): 302 | > 8
isolate (source animal id): 303 | 2 (≈ 5.58 µM)
isolate (source animal id): 304 | > 8
isolate (source animal id): 305 | 2 (≈ 5.58 µM)
isolate (source animal id): 306 | 4 (≈ 11.2 µM)
isolate (source animal id): 307 | > 8
isolate (source animal id): 308 | > 8
isolate (source animal id): 309 | > 8
isolate (source animal id): 310 | 4 (≈ 11.2 µM)
isolate (source animal id): 311 | > 8
isolate (source animal id): 312 | > 8
isolate (source animal id): 313 | 4 (≈ 11.2 µM)
isolate (source animal id): 314 | > 8
isolate (source animal id): 315 | 4 (≈ 11.2 µM)
isolate (source animal id): 316 | > 8
isolate (source animal id): 317 | > 8
isolate (source animal id): 318 | > 8
isolate (source animal id): 319 | > 8
isolate (source animal id): 320 | 4 (≈ 11.2 µM)
isolate (source animal id): 321 | > 8
isolate (source animal id): 322 | > 8
isolate (source animal id): 323 | 2 (≈ 5.58 µM)
isolate (source animal id): 324 | > 8
isolate (source animal id): 325 | 2 (≈ 5.58 µM)
isolate (source animal id): 326 | > 8
isolate (source animal id): 327 | > 8
isolate (source animal id): 328 | 2 (≈ 5.58 µM)
isolate (source animal id): 329 | > 8
isolate (source animal id): 330 | > 8
isolate (source animal id): 331 | > 8
isolate (source animal id): 332 | 4 (≈ 11.2 µM)
isolate (source animal id): 333 | 4 (≈ 11.2 µM)
isolate (source animal id): 334 | > 8
isolate (source animal id): 335 | > 8
isolate (source animal id): 336 | > 8
isolate (source animal id): 337 | > 8
isolate (source animal id): 338 | > 8
isolate (source animal id): 339 | > 8
isolate (source animal id): 340 | > 8
isolate (source animal id): 341 | 1 (≈ 2.79 µM)
